No constants are given. Whether binding was seen depends on the method and setting.
Legend:
Assay in all cases: protein binding radioassay
[1] = biological target: mu opioid receptor (MOR)
[2] = biological target: kappa opioid receptor (KOR)
[3] = biological target: delta opioid receptor (DOR)

Measured: binding

B1: Odorranalectin (OL) (peptide)
peptide: YASPKCFRYPNGVLACT
modifications: cyclic through a disulfide bond Cys6-Cys16 (cyclo[C6...C16])
no binding: all assays above
